Measurements reported in patent publication US10143697B2, “Pharmaceutic composition comprising of HDAC inhibitor and a steroid and the use thereof” (VALCURIA AB, priority 2011, dated 2018).
For at least one compound, name, drawing or mass did not settle the structure.

Tested on: WSU-NHL cells
Experiment: pretreatment with VPA and dexamethasone before CHOP, viability by trypan blue exclusion
Format: cell-based
Conditions: pretreatment with dexamethasone (1 μM) and VPA before CHOP, compared to pretreatment with VPA alone

Question: How did the VPA-CHOP-induced cell death turn out when `C[C@@H]1C[C@H]2[C@@H]3CCC4=CC(=O)C=C[C@]4(C)[C@@]3(F)[C@@H](O)C[C@]2(C)[C@@]1(O)C(=O)CO` [dexamethasone] was run?
Answer: further increases VPA-CHOP-induced cell death
